Laboratory results taken from patent US9290777B2, “Putative cytokinin receptor and methods for use thereof” (NATIONAL UNIVERSITY OF SINGAPORE, priority 2007, dated 2016).
Some results were stated once for a whole list of compounds, not compound by compound.

Tested on: HOG1 over-expression (OE) line 6 plants
Test: Exogenous cytokinin spray on HOG1 over-expression line, bolting stage
Format: in vivo, Arabidopsis thaliana
Settings: 0.01 μM spray on alternate days over four weeks; untreated OE lines bolt at 4 leaf stage, WT around 8

## c1coc(CNc2ncnc3[nH]cnc23)c1 [kinetin]
  leaf stage at bolting: 6-7 leaf stage
